# According to the supplement of paper PMC8728848:
# The list shows a part of the results.
# Assays:
# Assay in all cases: glycan array binding signal (z-score within array); higher = stronger binding
# Conditions in all cases: glycan notation: IUPAC condensed, linker removed
# [1] = target: GlcNAc(b1-4)GlcNAc(b1-4)GlcNAc(b1-4)GlcNAc(b1-4)GlcNAc
# Summary of the method: (§1)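 Arrays were curated from the Consortium for Functional Glycomics database, 3228 in total, and kept only where the protein sequence was available. Binding is expressed as a within-array Z-score. This score was averaged across arrays of the same protein sequence at different concentrations or buffers and across linkers, and negative values can be read as non-binding.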
# [2] = target: GlcNAc(b1-4)GlcNAc(b1-4)GlcNAc(b1-4)GlcNAc(b1-4)GlcNAc(b1-4)GlcNAc
# Summary of the method: as §1
# [3] = target: GlcNAc(b1-4)[GlcNAc(b1-6)]GalNAc
# Summary of the method: as §1
# [4] = target: GlcNAc(b1-6)Gal(b1-4)GlcNAc
# Summary of the method: as §1
# [5] = target: GlcNAc(b1-6)GalNAc
# Summary of the method: as §1
# [6] = target: GlcNAc6S(b1-3)Gal(b1-4)GlcNAc
# Summary of the method: as §1
# [7] = target: Kdn(a2-3)Gal(b1-3)GalNAc
# Summary of the method: as §1
# [8] = target: Kdn(a2-3)Gal(b1-3)GlcNAc
# Summary of the method: as §1
# [9] = target: Kdn(a2-3)Gal(b1-4)Glc
# Summary of the method: as §1
# [10] = target: Kdn(a2-3)Gal(b1-4)GlcNAc
# Summary of the method: as §1
# [11] = target: Kdn(a2-3)Gal(b1-4)[Fuc(a1-3)]GlcNAc
# Summary of the method: as §1
# [12] = target: Kdn(a2-6)Gal(b1-4)GlcNAc
# Summary of the method: as §1
# [13] = target: Man(a1-2)Man(a1-2)Man(a1-3)Man
# Summary of the method: as §1
# [14] = target: Man(a1-2)Man(a1-2)Man(a1-6)[Man(a1-3)]Man
# Summary of the method: as §1
# [15] = target: Man(a1-2)Man(a1-3)Man
# Summary of the method: as §1
# [16] = target: Man(a1-2)Man(a1-3)[Man(a1-2)Man(a1-6)]Man
# Summary of the method: as §1
# [17] = target: Man(a1-2)Man(a1-3)[Man(a1-2)Man(a1-6)]Man(a1-6)[Man(a1-2)Man(a1-2)Man(a1-3)]Man
# Summary of the method: as §1
# [18] = target: Man(a1-2)Man(a1-3)[Man(a1-2)Man(a1-6)]Man(a1-6)[Man(a1-2)Man(a1-2)Man(a1-3)]Man(b1-4)GlcNAc(b1-4)GlcNAc
# Summary of the method: as §1
# [19] = target: Man(a1-2)Man(a1-3)[Man(a1-6)]Man(a1-6)[Man(a1-2)Man(a1-3)]Man(b1-4)GlcNAc(b1-4)GlcNAc
# Summary of the method: as §1
# [20] = target: Man(a1-2)Man(a1-6)[Man(a1-3)]Man(a1-6)[Man(a1-2)Man(a1-2)Man(a1-3)]Man
# Summary of the method: as §1
# [21] = target: Man(a1-2)Man(a1-6)[Man(a1-3)]Man(a1-6)[Man(a1-2)Man(a1-2)Man(a1-3)]Man(b1-4)GlcNAc(b1-4)GlcNAc
# Summary of the method: as §1
# [22] = target: Man(a1-3)[Man(a1-6)]Man
# Summary of the method: as §1
# [23] = target: Man(a1-3)[Man(a1-6)]Man(a1-6)[Man(a1-2)Man(a1-3)]Man(b1-4)GlcNAc(b1-4)GlcNAc
# Summary of the method: as §1
# [24] = target: Man(a1-3)[Man(a1-6)]Man(a1-6)[Man(a1-3)]Man
# Summary of the method: as §1
# [25] = target: Man(a1-3)[Man(a1-6)]Man(a1-6)[Man(a1-3)]Man(b1-4)GlcNAc(b1-4)GlcNAc
# Summary of the method: as §1
# [26] = target: Man(a1-3)[Man(a1-6)]Man(b1-4)GlcNAc(b1-4)GlcNAc
# Summary of the method: as §1
# [27] = target: Man(a1-3)[Man(a1-6)]Man(b1-4)GlcNAc(b1-4)[Fuc(a1-6)]GlcNAc
# Summary of the method: as §1
# [28] = target: Man(a1-6)Man
# Summary of the method: as §1
# [29] = target: Man(b1-4)GlcNAc
# Summary of the method: as §1
# [30] = target: MurNAc(b1-4)GlcNAc
# Summary of the method: as §1
# [31] = target: Neu5Ac(a2-3)Gal
# Summary of the method: as §1
# [32] = target: Neu5Ac(a2-3)Gal(b1-3)GalNAc
# Summary of the method: as §1
# [33] = target: Neu5Ac(a2-3)Gal(b1-3)GalNAc(b1-3)Gal(a1-4)Gal(b1-4)Glc
# Summary of the method: as §1
# [34] = target: Neu5Ac(a2-3)Gal(b1-3)GalNAc(b1-4)Gal(b1-4)Glc
# Summary of the method: as §1
# [35] = target: Neu5Ac(a2-3)Gal(b1-3)GalNAc(b1-4)[Neu5Ac(a2-3)]Gal(b1-4)Glc
# Summary of the method: as §1
# [36] = target: Neu5Ac(a2-3)Gal(b1-3)GalNAc(b1-4)[Neu5Ac(a2-8)Neu5Ac(a2-3)]Gal(b1-4)Glc
# Summary of the method: as §1
# [37] = target: Neu5Ac(a2-3)Gal(b1-3)GalNAc6S
# Summary of the method: as §1
# [38] = target: Neu5Ac(a2-3)Gal(b1-3)GlcNAc
# Summary of the method: as §1
# [39] = target: Neu5Ac(a2-3)Gal(b1-3)GlcNAc(b1-2)Man
# Summary of the method: as §1
# [40] = target: Neu5Ac(a2-3)Gal(b1-3)GlcNAc(b1-2)Man(a1-3)[GlcNAc(b1-4)][Neu5Ac(a2-3)Gal(b1-3)GlcNAc(b1-2)Man(a1-6)]Man(b1-4)GlcNAc(b1-4)GlcNAc
# Summary of the method: as §1
# [41] = target: Neu5Ac(a2-3)Gal(b1-3)GlcNAc(b1-2)Man(a1-3)[Neu5Ac(a2-3)Gal(b1-3)GlcNAc(b1-2)Man(a1-6)]Man(b1-4)GlcNAc(b1-4)GlcNAc
# Summary of the method: as §1
# [42] = target: Neu5Ac(a2-3)Gal(b1-3)GlcNAc(b1-2)[Neu5Ac(a2-3)Gal(b1-3)GlcNAc(b1-4)]Man(a1-6)[Neu5Ac(a2-3)Gal(b1-3)GlcNAc(b1-2)Man(a1-3)]Man(b1-4)GlcNAc(b1-4)GlcNAc
# Summary of the method: as §1
# [43] = target: Neu5Ac(a2-3)Gal(b1-3)GlcNAc(b1-3)Gal(b1-3)GlcNAc
# Summary of the method: as §1
# [44] = target: Neu5Ac(a2-3)Gal(b1-3)GlcNAc(b1-3)Gal(b1-4)GlcNAc
# Summary of the method: as §1
# [45] = target: Neu5Ac(a2-3)Gal(b1-3)GlcNAc(b1-3)GalNAc
# Summary of the method: as §1
binder,measurement,setting,value
Epa21 (Candida glabrata) (protein) MGSSHHHHHHSSGLVPRGSHMASTPNIESHPQGCSPVDTSGIKPGLKMDLYRFPITPPGTGCWSWDWLTVTPDFPRSGYWKWPKIAEVDGVVGPLHLDSGHPTCDPLTSVLPHGFNYLQSITTTNFTMVLHGYFVPKQSGKYTFEFKADDALLLNLGAGNAFSCCDYNNSQYNQGEYLAYAIWSKNNQTATLYLEKGIYYPIRVFYHNRCCGAYMDVVYYFNDSPIPNRDFSGLLFSIPDSDSCDANI,glycan array binding signal (z-score),[1],0.425
same,glycan array binding signal (z-score),[2],0.112
same,glycan array binding signal (z-score),[3],-0.763
same,glycan array binding signal (z-score),[4],0.013
same,glycan array binding signal (z-score),[5],0.107
same,glycan array binding signal (z-score),[6],0.257
same,glycan array binding signal (z-score),[7],1.54
same,glycan array binding signal (z-score),[8],-0.379
same,glycan array binding signal (z-score),[9],0.419
same,glycan array binding signal (z-score),[10],-0.13
same,glycan array binding signal (z-score),[11],0.588
same,glycan array binding signal (z-score),[12],0.592
same,glycan array binding signal (z-score),[13],-0.825
same,glycan array binding signal (z-score),[14],-0.531
same,glycan array binding signal (z-score),[15],-1.02
same,glycan array binding signal (z-score),[16],-0.812
same,glycan array binding signal (z-score),[17],-0.949
same,glycan array binding signal (z-score),[18],-0.033
same,glycan array binding signal (z-score),[19],-0.648
same,glycan array binding signal (z-score),[20],-0.188
same,glycan array binding signal (z-score),[21],-0.027
same,glycan array binding signal (z-score),[22],0.047
same,glycan array binding signal (z-score),[23],0.499
same,glycan array binding signal (z-score),[24],-0.026
same,glycan array binding signal (z-score),[25],0.393
same,glycan array binding signal (z-score),[26],-0.467
same,glycan array binding signal (z-score),[27],1.28
same,glycan array binding signal (z-score),[28],0.342
same,glycan array binding signal (z-score),[29],0.389
same,glycan array binding signal (z-score),[30],0.152
same,glycan array binding signal (z-score),[31],-0.797
same,glycan array binding signal (z-score),[32],-0.287
same,glycan array binding signal (z-score),[33],-0.255
same,glycan array binding signal (z-score),[34],-0.321
same,glycan array binding signal (z-score),[35],0.041
same,glycan array binding signal (z-score),[36],-0.494
same,glycan array binding signal (z-score),[37],0.158
same,glycan array binding signal (z-score),[38],-0.169
same,glycan array binding signal (z-score),[39],-0.494
same,glycan array binding signal (z-score),[40],0.358
same,glycan array binding signal (z-score),[41],-0.261
same,glycan array binding signal (z-score),[42],0.284
same,glycan array binding signal (z-score),[43],-0.487
same,glycan array binding signal (z-score),[44],-0.39
same,glycan array binding signal (z-score),[45],-0.308

# A section of the results above:
binder,measurement,setting,value
Epa21 (Candida glabrata) (protein) MGSSHHHHHHSSGLVPRGSHMASTPNIESHPQGCSPVDTSGIKPGLKMDLYRFPITPPGTGCWSWDWLTVTPDFPRSGYWKWPKIAEVDGVVGPLHLDSGHPTCDPLTSVLPHGFNYLQSITTTNFTMVLHGYFVPKQSGKYTFEFKADDALLLNLGAGNAFSCCDYNNSQYNQGEYLAYAIWSKNNQTATLYLEKGIYYPIRVFYHNRCCGAYMDVVYYFNDSPIPNRDFSGLLFSIPDSDSCDANI,glycan array binding signal (z-score),[44],-0.39
same,glycan array binding signal (z-score),[45],-0.308
